The values below come from article PMC9413144, “Similar 5F-APINACA Metabolism between CD-1 Mouse and Human Liver Microsomes Involves Different P450 Cytochromes” (Metabolites, 2022).

The subject of data set [1] is CD-1 mouse liver microsomes. Briefly: Steady-state kinetics for 5F-APINACA metabolism by CD-1 mouse liver microsomes. Format: in vitro ADME. Here is the method: (§1) The in vitro 5F-APINACA analyses relied on reactions with human liver microsomes 150 (HLM150) as a model for the average adult human liver and CD-1 mouse liver microsomes as the standard for SCB studies. In a 96-half-well microplate, reaction conditions included human or mouse liver microsomes in 100 mM potassium phosphate buffer pH 7.4, 0.1% methanol (co-solvent), and 5F-APINACA concentrations ranging from 0 to 250 µM. The microplates were preincubated for 15 min at 37 °C with shaking at 350 rpm using a BMG Labtech THERMOstar incubator (Ortenberg, Germany). The addition of an NADPH-regenerating system (4 U/mL glucose-6-phosphate dehydrogenase, 12 mM glucose 6-phosphate, 12 mM MgCl2, 4 mM NADP^+) initiated the reaction. Reactions were quenched by adding an equal volume of ice-cold acetonitrile containing an internal standard (2 μM acenocoumarol final). Samples were chilled on ice for 10 min to optimize precipitation of proteins in phosphate buffer. […] Standards for metabolite quantifications were prepared with human or mouse liver microsomes in 100 mM potassium phosphate buffer pH 7.4, 0.1% methanol (co-solvent), and 5OH-APINACA concentrations ranging from 0 to 15 µM. […] The composition of reactions was determined by liquid chromatographic analysis involving detection of analytes via UV/visible absorbance and mass spectroscopy (Section 2.5). […]

The subject of data set [2] is pooled human liver microsomes (HLM150). Put plainly: Steady-state kinetics for 5F-APINACA metabolism by pooled human liver microsomes. Format: in vitro ADME. Here is the method:
as §1

Setting [3] is: formation of the metabolite from 5F-APINACA, 0.1 mg/mL protein, traditional kinetic models.
Setting [4] is: Combined adamantyl hydroxylation pathway (5F-APINACA-OH + 5F-APINACA-(OH)2 rates combined).

In the case of `O=C(NC12CC3CC(CC(C3)C1)C2)c1nn(CCCCCO)c2ccccc12` [5OH-APINACA], the “Model (most probable kinetic mechanism)” value in data set [1] (setting [3]) is reported as “Hill”; in data set [2] (setting [3]), “Michaelis–Menten”.

For the compound “N-(1-adamantyl)-1-(5-pentyl)-1H-indazole-3-carboxamide [5F-APINACA]”, the “Model (most probable kinetic mechanism)” value in data set [1] (setting [4]) and in data set [2] (setting [4]) was “Substrate inhibition” throughout.
